Values quoted from earlier work in patent publication US12377110B2, “Fospropofol methods and compositions” (Epalex Corporation, priority 2019, dated 2025).
Some of these results come from one statement about several compounds together. Some ranges recur; such a range may be that of the whole group of compounds.

system: migraine patients; details: oral triptans, acute treatment of migraine; cited from earlier work

Row | Compound | patients in whom generally effective [%]
1 | CN1CCC[C@@H]1Cc1c[nH]c2ccc(CCS(=O)(=O)c3ccccc3)cc12 [eletriptan] | 60 to 70
2 | CNS(=O)(=O)Cc1ccc2[nH]cc(CCN(C)C)c2c1 [sumatriptan] | 60 to 70
3 | CN(C)CCc1c[nH]c2ccc(CS(=O)(=O)N3CCCC3)cc12 [almotriptan] | 60 to 70
4 | CN(C)CCc1c[nH]c2ccc(C[C@H]3COC(=O)N3)cc12 [zolmitriptan] | 60 to 70
5 | CN[C@@H]1CCc2[nH]c3ccc(C(N)=O)cc3c2C1 [frovatriptan] | 60 to 70
6 | CNS(=O)(=O)CCc1ccc2[nH]cc(C3CCN(C)CC3)c2c1 [naratriptan] | 60 to 70
7 | CN(C)CCc1c[nH]c2ccc(Cn3cncn3)cc12 [rizatriptan] | 60 to 70
